PubChem BioAssay AID602196 – INSERM | 2012
In all, the deposit lists about 23,000 reagents; below is a part drawn at random. 455 of all reagents (2%) count as active. 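Active includes both protection and sensitisation; some change values fall well beyond the stated -50 to +50 range.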 Entries without a mark were called inactive. The numbers tell different reagents against one gene apart. Not all columns of the deposit are shown. No sequences are given here. The record does not give: the amount of reagent.

Test: 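Genes whose knock-down alters cisplatin killing of lung cancer cells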
Cell system: human A549 lung cancer cells
Knock-down reagent: siRNA pair against human genes
Duration: 48 h transfection before cisplatin; time from cisplatin to read-out not stated
Challenge: cisplatin at a dose killing half of control-siRNA cells; exact dose and duration not given
Measured: 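Shift in cisplatin death relative to control siRNA, from -50 (all cells die) to +50 (no cells die); siRNAs harmful on their own scored 0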
Direction: two-siRNA summed score (-2 to +2): higher = both siRNAs protect from cisplatin killing; -2 means both sensitise; mean protection from cisplatin (shift in death): higher = protection from cisplatin killing
Rule for the call: 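Each siRNA scores 0 if harmful alone by LDH or WST-1, otherwise +1 if it reduces and -1 if it increases cisplatin killing; a gene is active when both siRNAs agree (sum +2 or -2)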
Meaning of the calls: active = both siRNAs shift cisplatin killing the same way; inactive = no consistent shift, or siRNA harmful alone

Against PIWIL4 (GeneID 143689) the deposit lists two-siRNA summed score (-2 to +2) = 0; mean protection from cisplatin (shift in death) (%) = 9.4.
With knock-down of KIAA1240, the screen gave two-siRNA summed score (-2 to +2) = 0; mean protection from cisplatin (shift in death) (%) = 11.9.
Knock-down of NEUROD6 (GeneID 63974) gave: two-siRNA summed score (-2 to +2) = 0; mean protection from cisplatin (shift in death) (%) = -11.1.
Silencing of CCDC127 (GeneID 133957) came out at: two-siRNA summed score (-2 to +2) = 0; mean protection from cisplatin (shift in death) (%) = -2.5.
Against ERAS (GeneID 3266), the values are two-siRNA summed score (-2 to +2) = 0; mean protection from cisplatin (shift in death) (%) = 1.
For BTN3A1 (GeneID 11119) the deposit lists two-siRNA summed score (-2 to +2) = 0; mean protection from cisplatin (shift in death) (%) = -2.3.
TMX1 (GeneID 81542) showed two-siRNA summed score (-2 to +2) = 0; mean protection from cisplatin (shift in death) (%) = -1.
LOC400301 gave two-siRNA summed score (-2 to +2) = 0; mean protection from cisplatin (shift in death) (%) = 8.5.
Depletion of MARK2P21 (GeneID 497049) gave: two-siRNA summed score (-2 to +2) = 1; mean protection from cisplatin (shift in death) (%) = 0.3.
After knock-down of LCE3C (GeneID 353144), the record shows two-siRNA summed score (-2 to +2) = 0; mean protection from cisplatin (shift in death) (%) = 4.5.
Knock-down of LOC388790 resulted in: two-siRNA summed score (-2 to +2) = 0; mean protection from cisplatin (shift in death) (%) = 3.4.

Targets listed so far whose target name begins with L or l:
LOC400301 | two-siRNA summed score (-2 to +2): 0; mean protection from cisplatin (shift in death) (%): 8.5
LCE3C (GeneID 353144) | two-siRNA summed score (-2 to +2): 0; mean protection from cisplatin (shift in death) (%): 4.5
LOC388790 | two-siRNA summed score (-2 to +2): 0; mean protection from cisplatin (shift in death) (%): 3.4

Continued.
Depletion of CHERP (GeneID 10523) gave: two-siRNA summed score (-2 to +2) = 1; mean protection from cisplatin (shift in death) (%) = 10.4.
For SLC14A1 (GeneID 6563), the entry reads two-siRNA summed score (-2 to +2) = 1; mean protection from cisplatin (shift in death) (%) = 15.7.
ZNF510 (GeneID 22869) scored two-siRNA summed score (-2 to +2) = 0; mean protection from cisplatin (shift in death) (%) = 0.8.
Against TES (GeneID 26136) the deposit lists two-siRNA summed score (-2 to +2) = 1; mean protection from cisplatin (shift in death) (%) = 17.5.
Silencing of CCSER1 (GeneID 401145) resulted in: two-siRNA summed score (-2 to +2) = 0; mean protection from cisplatin (shift in death) (%) = 4.6.
With knock-down of SCLT1 (GeneID 132320), the screen gave two-siRNA summed score (-2 to +2) = 1; mean protection from cisplatin (shift in death) (%) = 16.1.
After knock-down of CIMAP3 (GeneID 128344), the screen gave two-siRNA summed score (-2 to +2) = 0; mean protection from cisplatin (shift in death) (%) = 6.4.
Silencing of DNAI7 (GeneID 55259) gave: two-siRNA summed score (-2 to +2) = 0; mean protection from cisplatin (shift in death) (%) = -3.6.
After knock-down of CPNE2 (GeneID 221184), the screen gave two-siRNA summed score (-2 to +2) = 0; mean protection from cisplatin (shift in death) (%) = 12.6.
For ACSF2 (GeneID 80221), the entry reads two-siRNA summed score (-2 to +2) = 0; mean protection from cisplatin (shift in death) (%) = -4.5.
Depletion of CENPL (GeneID 91687) came out at: two-siRNA summed score (-2 to +2) = 1; mean protection from cisplatin (shift in death) (%) = 4.8.
Depletion of EEF1D (GeneID 1936) came out at: two-siRNA summed score (-2 to +2) = 0; mean protection from cisplatin (shift in death) (%) = 0.6.
For EID1 (GeneID 23741), the values are two-siRNA summed score (-2 to +2) = 0; mean protection from cisplatin (shift in death) (%) = 4.2.
With knock-down of TCF7L1 (GeneID 83439) the results were two-siRNA summed score (-2 to +2) = 0; mean protection from cisplatin (shift in death) (%) = 6.4.
ANKRD20A8P (GeneID 729171) showed two-siRNA summed score (-2 to +2) = 1; mean protection from cisplatin (shift in death) (%) = 17.
POLR1H (GeneID 30834) gave two-siRNA summed score (-2 to +2) = 0; mean protection from cisplatin (shift in death) (%) = 6.6.
After knock-down of KIAA0825 (GeneID 285600) #1, the record shows two-siRNA summed score (-2 to +2) = 0; mean protection from cisplatin (shift in death) (%) = 5.6.
For KIAA0825 (GeneID 285600) #2, the entry reads two-siRNA summed score (-2 to +2) = 1; mean protection from cisplatin (shift in death) (%) = 8.
NRIP1 (GeneID 8204) gave two-siRNA summed score (-2 to +2) = -1; mean protection from cisplatin (shift in death) (%) = -17.
For GNAZ (GeneID 2781), the entry reads two-siRNA summed score (-2 to +2) = 0; mean protection from cisplatin (shift in death) (%) = -5.9.
